Data as given in patent US6608106B2 (Sloan-Kettering Institute for Cancer Research, priority 1997, dated 2003).
At least one compound was matched to its structure with a doubt left.

Tested on: murine stroke (right middle cerebral artery occlusion)
Assay: Reperfused stroke: reversible (45 minutes) right middle cerebral artery occlusion
Assay type: in vivo, C57/6J BL mice
Conditions: 250 mg/kg
Procedure: Dithiothreitol (0.1 mmol/L) was then added separately to both DHA and ascorbate prior to use as a reducing agent. For experiments examining the effect of focal cerebal ischemia on the DHA's ability to: (1) cross the blood-brain barrier and, (2) protect cerebral tissue, we employed an intraluminal murine model of reversible (45 minutes) or permanent (24 h) right middle cerebral artery occlusion. (12) Anesthetized normothermic C57/6J BL mice were treated prior to ischemia via penile injection with either high dose DHA (250 mg/kg), low dose DHA (40 mg/kg), ascorbate (250 mg/kg), or sucrose (a non-metabolized, non-transportable marker of plasma volume). All animals underwent transcranial laser doppler measurement of cortical cerebral blood flow perioperatively. […] (11) In contrast, the experimental cohorts were followed for 24 hours and underwent pre-sacrifice neurological examination, as previously described. 13 Infarct volumes were calculated by digital analysis of serial, 2,3,5-triphenyltetrazolium-stained, sections, with volumes expressed as percentage of the ipsilateral hemisphere.^12 There were 67 animals in the reperfusion cohort (including vehicle, 40 mg/kg DHA, 250 mg/kg DHA, and 250 mg/kg ascorbate cohorts) and 54 animals in the nonreperfused cohort (including vehicle, 250 mg/kg DHA, and 250 mg/kg ascorbate cohorts). […]

SMILES: O=C1O[C@H]([C@@H](O)CO)C(O)=C1O [ascorbic acid, L-[1-^14C]-ascorbic acid]
- improvement in infarct size or neurological function (in words): not associated with significant improvements
